Data source: PubChem BioAssay AID1259308 (NCATS, 2017)
Shown is a random part of about 59,000 reagents tested. Over the whole deposit, about 1,510 (2.6%) are marked active. 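Calls use total luciferase alone and ignore viability, so some active siRNAs may act by altering cell number.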 Entries without a mark were called inactive. Reagents against one gene are numbered here. Further read-outs or replicates are left out here.

Purpose: 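Knock-downs that increase output of a recombinant reporter protein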 (primary screen)
Cells: human HEK293 embryonic kidney cells stably expressing firefly luciferase (HEK-CMV-Luc2-Hygro)
Reagents: single siRNA against human genes, 0.8 pmol siRNA per well
Timing: 72 h
Measured: 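Luciferase light (ONE-Glo) measured on one replicate plate set and viability (CellTiter-Glo) on the other, scaled to a negative control siRNA, with robust z-scores and luciferase per cell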
Scale: total luciferase, z-score and total luciferase, % of control: higher = more reporter protein produced
Call rule: 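An siRNA counts as active if its total luciferase robust z-score exceeds 3; genes with two or more such siRNAs out of three were retested with fresh siRNAs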
Calls: active = raised luciferase; inactive = no rise

What is on record for ZNF3 #1?
total luciferase, z-score: -0.846; total luciferase, % of control: 65.1

With ZNF3 #2, how do the results read?
total luciferase, z-score: 2.21; total luciferase, % of control: 126

With ZNF3 #3, what was measured?
total luciferase, z-score: 0.622; total luciferase, % of control: 94.3

For SLC25A19 #1, how do the results read?
total luciferase, z-score: -0.00269; total luciferase, % of control: 81.8

What is on record for SLC25A19 #2?
total luciferase, z-score: -0.141; total luciferase, % of control: 79.1

What did the screen give for SLC25A19 #3?
total luciferase, z-score: 2.55; total luciferase, % of control: 133

How did the screen score RNF217 #1?
total luciferase, z-score: 1.68; total luciferase, % of control: 115

For RNF217 #2, what was measured?
total luciferase, z-score: 1.26; total luciferase, % of control: 107

Which result is listed for RNF217 #3?
total luciferase, z-score: -0.0231; total luciferase, % of control: 81.4

How did the screen score PURG #1?
total luciferase, z-score: 1.06; total luciferase, % of control: 103

How did the screen score PURG #2?
total luciferase, z-score: 0.239; total luciferase, % of control: 86.6

Which result is listed for PURG #3?
total luciferase, z-score: -0.912; total luciferase, % of control: 63.8

For NFKB2 #1, what does the deposit list?
total luciferase, z-score: 1.71; total luciferase, % of control: 116

For NFKB2 #2, what does the deposit list?
total luciferase, z-score: 0.345; total luciferase, % of control: 88.7

With NFKB2 #3, how do the results read?
total luciferase, z-score: -2.02; total luciferase, % of control: 41.8

Which result is listed for SOX10 #1?
total luciferase, z-score: 0.45; total luciferase, % of control: 90.8

What did the screen give for SOX10 #2?
total luciferase, z-score: -1.53; total luciferase, % of control: 51.5

For SOX10 #3, what does the deposit list?
total luciferase, z-score: 0.315; total luciferase, % of control: 88.1

For RAB21 #1, what was measured?
total luciferase, z-score: -0.173; total luciferase, % of control: 78.4

For RAB21 #2, how do the results read?
total luciferase, z-score: 0.114; total luciferase, % of control: 84.2

What did the screen give for RAB21 #3?
total luciferase, z-score: 0.658; total luciferase, % of control: 95

How did the screen score TRIM45 #1?
total luciferase, z-score: -0.334; total luciferase, % of control: 75.2

What is on record for TRIM45 #2?
total luciferase, z-score: 3.47 (active); total luciferase, % of control: 151

Which result is listed for TRIM45 #3?
total luciferase, z-score: 0.615; total luciferase, % of control: 94.1

For PPIAP72 #1, what was measured?
total luciferase, z-score: -0.904; total luciferase, % of control: 63.9

With PPIAP72 #2, what does the deposit list?
total luciferase, z-score: 0.165; total luciferase, % of control: 85.2

With PPIAP72 #3, what does the deposit list?
total luciferase, z-score: 0.754; total luciferase, % of control: 96.9

With EID3 #1, how do the results read?
total luciferase, z-score: -0.372; total luciferase, % of control: 74.5

How did the screen score EID3 #2?
total luciferase, z-score: -0.512; total luciferase, % of control: 71.7

What is on record for EID3 #3?
total luciferase, z-score: -0.289; total luciferase, % of control: 76.1

With TMCC1 #1, how do the results read?
total luciferase, z-score: -0.0887; total luciferase, % of control: 80.1

For TMCC1 #2, what was measured?
total luciferase, z-score: -0.732; total luciferase, % of control: 67.3

For TMCC1 #3, what was measured?
total luciferase, z-score: 0.821; total luciferase, % of control: 98.2

Entries listed so far whose gene name begins with S or s:
SLC25A19 #1: total luciferase, z-score = -0.00269; total luciferase, % of control = 81.8
SLC25A19 #2: total luciferase, z-score = -0.141; total luciferase, % of control = 79.1
SLC25A19 #3: total luciferase, z-score = 2.55; total luciferase, % of control = 133
SOX10 #1: total luciferase, z-score = 0.45; total luciferase, % of control = 90.8
SOX10 #2: total luciferase, z-score = -1.53; total luciferase, % of control = 51.5
SOX10 #3: total luciferase, z-score = 0.315; total luciferase, % of control = 88.1
